From article doi:10.1101/2025.06.26.659600
Results are given in words; binding and its absence hold for the method and conditions named. In cells and extracts the contact can be indirect. Some results given as binding are weak or reduced against the parent protein; the word gives no strength.

Amino acid sequences for entries named in this document (tags omitted). A change or cut given only in a name is not applied to a line headed by its entry. Residues count along the entry.
UniProt O00459, whole entry: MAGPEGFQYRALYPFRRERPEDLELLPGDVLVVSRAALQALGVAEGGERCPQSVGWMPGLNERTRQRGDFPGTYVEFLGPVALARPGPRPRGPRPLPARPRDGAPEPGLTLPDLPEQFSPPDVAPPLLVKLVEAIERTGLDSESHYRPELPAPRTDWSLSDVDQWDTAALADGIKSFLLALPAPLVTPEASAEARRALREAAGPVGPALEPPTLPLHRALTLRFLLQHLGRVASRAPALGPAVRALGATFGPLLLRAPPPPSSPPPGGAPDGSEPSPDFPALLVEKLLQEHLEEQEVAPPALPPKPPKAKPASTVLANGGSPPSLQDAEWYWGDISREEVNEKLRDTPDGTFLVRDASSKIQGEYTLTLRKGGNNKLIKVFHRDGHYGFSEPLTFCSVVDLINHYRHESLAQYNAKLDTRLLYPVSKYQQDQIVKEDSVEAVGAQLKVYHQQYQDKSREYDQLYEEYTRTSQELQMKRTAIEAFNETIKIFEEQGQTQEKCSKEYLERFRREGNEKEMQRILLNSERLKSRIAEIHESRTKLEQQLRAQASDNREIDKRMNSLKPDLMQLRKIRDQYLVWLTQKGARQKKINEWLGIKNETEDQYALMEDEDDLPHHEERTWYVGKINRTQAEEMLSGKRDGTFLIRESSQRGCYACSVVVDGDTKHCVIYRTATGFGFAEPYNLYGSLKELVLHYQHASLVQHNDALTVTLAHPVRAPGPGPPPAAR
UniProt O00329, 108-1044, stated change not applied: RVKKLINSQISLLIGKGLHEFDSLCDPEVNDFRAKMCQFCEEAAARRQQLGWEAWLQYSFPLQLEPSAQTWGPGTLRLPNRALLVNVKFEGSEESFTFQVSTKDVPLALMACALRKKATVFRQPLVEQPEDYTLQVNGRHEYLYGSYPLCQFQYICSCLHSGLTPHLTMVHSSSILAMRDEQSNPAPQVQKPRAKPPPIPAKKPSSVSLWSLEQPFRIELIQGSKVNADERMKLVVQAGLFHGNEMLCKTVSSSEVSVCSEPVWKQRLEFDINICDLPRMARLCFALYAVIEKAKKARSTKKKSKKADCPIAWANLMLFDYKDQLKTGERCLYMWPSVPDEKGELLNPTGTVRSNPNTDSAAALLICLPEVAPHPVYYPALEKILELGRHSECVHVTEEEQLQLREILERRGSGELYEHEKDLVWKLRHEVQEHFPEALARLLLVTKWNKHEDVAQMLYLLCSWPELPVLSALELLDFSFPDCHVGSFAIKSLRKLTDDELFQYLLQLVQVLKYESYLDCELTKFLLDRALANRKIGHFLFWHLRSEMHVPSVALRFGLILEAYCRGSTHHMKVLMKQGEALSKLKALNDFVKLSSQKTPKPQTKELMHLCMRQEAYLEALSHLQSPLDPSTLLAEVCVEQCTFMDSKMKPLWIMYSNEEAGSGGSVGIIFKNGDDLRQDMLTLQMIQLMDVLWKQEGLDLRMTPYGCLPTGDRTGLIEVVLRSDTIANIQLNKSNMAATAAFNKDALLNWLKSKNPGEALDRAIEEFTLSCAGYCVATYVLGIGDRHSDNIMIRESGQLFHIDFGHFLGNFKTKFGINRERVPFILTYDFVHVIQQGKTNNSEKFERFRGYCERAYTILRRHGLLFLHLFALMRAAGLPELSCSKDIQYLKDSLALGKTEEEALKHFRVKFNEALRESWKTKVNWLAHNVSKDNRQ
UniProt O00329, whole entry, looked up, stated change not applied: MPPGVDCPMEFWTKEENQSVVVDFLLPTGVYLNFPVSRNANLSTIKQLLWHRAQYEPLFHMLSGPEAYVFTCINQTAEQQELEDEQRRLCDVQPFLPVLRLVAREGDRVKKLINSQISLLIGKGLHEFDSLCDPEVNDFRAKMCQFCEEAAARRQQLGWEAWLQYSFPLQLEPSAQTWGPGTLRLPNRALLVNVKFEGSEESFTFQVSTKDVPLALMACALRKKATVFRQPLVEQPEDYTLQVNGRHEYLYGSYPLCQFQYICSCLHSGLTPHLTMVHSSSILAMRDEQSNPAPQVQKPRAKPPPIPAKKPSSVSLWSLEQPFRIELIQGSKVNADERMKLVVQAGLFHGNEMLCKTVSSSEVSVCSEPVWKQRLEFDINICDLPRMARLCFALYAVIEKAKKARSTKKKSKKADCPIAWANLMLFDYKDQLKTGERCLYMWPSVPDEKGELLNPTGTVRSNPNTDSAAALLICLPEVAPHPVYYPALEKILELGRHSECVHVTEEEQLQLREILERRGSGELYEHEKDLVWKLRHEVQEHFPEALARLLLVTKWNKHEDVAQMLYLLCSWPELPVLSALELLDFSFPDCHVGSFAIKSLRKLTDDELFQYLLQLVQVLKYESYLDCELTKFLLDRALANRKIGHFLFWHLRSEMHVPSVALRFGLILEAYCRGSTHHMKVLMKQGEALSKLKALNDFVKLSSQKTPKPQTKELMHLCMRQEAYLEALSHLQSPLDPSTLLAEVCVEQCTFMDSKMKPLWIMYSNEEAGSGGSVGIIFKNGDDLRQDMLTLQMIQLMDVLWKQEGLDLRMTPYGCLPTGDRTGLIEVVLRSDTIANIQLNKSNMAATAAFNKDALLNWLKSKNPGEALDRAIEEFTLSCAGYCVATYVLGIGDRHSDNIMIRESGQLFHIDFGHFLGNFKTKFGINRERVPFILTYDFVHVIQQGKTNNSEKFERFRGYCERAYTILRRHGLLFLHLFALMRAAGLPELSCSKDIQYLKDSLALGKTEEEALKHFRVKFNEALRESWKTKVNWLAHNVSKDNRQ
UniProt P42338, whole entry: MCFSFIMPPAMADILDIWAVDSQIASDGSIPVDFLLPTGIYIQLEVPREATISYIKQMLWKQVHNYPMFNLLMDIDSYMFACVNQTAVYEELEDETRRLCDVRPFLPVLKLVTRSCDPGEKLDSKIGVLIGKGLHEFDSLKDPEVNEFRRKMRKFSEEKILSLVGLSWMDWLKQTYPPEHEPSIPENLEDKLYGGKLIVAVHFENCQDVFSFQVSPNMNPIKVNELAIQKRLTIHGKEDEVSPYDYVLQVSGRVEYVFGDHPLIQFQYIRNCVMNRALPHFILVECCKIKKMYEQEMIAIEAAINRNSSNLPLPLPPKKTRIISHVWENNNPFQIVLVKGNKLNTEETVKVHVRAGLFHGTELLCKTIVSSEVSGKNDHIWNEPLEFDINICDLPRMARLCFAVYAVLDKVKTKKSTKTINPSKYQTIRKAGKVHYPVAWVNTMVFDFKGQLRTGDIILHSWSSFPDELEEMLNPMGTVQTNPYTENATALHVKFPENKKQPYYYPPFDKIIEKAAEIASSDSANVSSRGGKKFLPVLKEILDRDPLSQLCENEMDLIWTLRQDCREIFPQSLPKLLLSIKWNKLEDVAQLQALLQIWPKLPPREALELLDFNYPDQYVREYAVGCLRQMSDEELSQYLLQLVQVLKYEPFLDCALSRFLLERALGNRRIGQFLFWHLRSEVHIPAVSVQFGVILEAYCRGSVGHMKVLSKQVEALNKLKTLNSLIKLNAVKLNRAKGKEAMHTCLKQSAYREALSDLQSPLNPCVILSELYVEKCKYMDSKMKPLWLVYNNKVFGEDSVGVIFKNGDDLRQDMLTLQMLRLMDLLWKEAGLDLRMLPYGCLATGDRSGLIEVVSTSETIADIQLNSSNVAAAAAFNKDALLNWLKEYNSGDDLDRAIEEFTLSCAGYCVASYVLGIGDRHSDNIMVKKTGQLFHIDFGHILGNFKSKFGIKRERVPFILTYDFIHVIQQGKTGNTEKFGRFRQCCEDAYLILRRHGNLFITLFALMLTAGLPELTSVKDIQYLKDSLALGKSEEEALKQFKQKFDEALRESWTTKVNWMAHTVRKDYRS
UniProt P42338, 41-118: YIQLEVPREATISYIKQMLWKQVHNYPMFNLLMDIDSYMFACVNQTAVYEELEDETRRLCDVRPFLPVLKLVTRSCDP
UniProt P42338, 119-1070, stated change not applied: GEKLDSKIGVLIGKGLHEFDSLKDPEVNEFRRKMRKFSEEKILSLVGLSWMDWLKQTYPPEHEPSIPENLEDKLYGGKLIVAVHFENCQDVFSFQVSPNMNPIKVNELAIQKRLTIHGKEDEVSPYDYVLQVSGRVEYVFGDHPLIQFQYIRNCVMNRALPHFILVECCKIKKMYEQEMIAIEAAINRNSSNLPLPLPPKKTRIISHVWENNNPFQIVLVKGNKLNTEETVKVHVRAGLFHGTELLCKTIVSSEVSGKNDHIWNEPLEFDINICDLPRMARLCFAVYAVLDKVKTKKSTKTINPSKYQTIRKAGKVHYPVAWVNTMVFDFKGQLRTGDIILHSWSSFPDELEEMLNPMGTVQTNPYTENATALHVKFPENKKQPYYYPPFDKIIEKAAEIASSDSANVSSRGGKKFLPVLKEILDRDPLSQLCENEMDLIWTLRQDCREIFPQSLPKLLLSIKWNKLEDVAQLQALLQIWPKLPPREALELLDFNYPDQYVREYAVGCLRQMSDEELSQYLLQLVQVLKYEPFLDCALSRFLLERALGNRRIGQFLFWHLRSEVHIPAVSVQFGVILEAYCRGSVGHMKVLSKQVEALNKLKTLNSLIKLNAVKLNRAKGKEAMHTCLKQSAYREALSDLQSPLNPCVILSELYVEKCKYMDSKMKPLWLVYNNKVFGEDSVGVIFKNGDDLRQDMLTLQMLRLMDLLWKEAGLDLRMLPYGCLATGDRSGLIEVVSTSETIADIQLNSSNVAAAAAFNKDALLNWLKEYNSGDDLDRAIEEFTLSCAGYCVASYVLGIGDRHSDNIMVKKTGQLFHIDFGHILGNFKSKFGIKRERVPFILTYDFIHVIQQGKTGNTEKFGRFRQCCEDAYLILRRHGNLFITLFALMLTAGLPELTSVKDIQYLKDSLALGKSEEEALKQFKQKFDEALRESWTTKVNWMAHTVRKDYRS
UniProt P42336, 32-108: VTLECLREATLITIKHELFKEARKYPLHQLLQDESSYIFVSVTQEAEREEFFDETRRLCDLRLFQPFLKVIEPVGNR
UniProt P42336, 109-1068, stated change not applied: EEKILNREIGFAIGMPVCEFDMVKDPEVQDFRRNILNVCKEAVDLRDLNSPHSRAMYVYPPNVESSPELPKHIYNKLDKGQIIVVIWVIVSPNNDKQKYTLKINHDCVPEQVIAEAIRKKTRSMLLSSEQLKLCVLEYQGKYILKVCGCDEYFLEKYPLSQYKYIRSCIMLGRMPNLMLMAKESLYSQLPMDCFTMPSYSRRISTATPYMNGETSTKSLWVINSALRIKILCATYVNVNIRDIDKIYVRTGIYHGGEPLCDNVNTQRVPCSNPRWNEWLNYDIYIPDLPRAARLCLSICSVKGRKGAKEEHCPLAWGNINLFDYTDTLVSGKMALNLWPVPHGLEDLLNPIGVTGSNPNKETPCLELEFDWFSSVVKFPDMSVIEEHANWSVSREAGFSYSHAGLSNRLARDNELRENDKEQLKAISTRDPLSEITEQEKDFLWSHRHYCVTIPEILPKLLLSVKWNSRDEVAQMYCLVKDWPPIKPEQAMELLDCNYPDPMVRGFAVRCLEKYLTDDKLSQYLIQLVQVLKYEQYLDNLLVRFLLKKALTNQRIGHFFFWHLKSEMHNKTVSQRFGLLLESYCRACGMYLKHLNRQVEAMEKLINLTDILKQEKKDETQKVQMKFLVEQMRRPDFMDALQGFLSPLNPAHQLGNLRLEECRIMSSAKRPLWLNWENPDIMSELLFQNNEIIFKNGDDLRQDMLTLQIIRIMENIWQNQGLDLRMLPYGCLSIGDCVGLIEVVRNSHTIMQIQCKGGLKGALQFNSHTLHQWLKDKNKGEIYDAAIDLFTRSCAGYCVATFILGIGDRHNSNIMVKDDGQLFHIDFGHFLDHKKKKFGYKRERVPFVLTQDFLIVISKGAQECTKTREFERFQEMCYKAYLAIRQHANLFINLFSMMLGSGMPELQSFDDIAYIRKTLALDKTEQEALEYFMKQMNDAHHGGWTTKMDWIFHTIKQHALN

These substances were tested against HA-tagged p85β (UniProt O00459) (assay: co-IP).

**Q.** “p110δ ΔABD [108–1044] (from UniProt O00329 108-1044) (domain or fragment)” was tested. Which binding did it give?
**A.** The binding was “no binding”.

**Q.** For “p110β P104A/P107A (from UniProt P42338 1-1070)”, which binding is on record?
**A.** Its binding is “binds”.

**Q.** “p110α ABD [32–108] (from UniProt P42336 32-108) (domain or fragment)” was tested. Which binding did it give?
**A.** Its binding is “binds”.

**Q.** With “p110α ΔABD [109–1068] (from UniProt P42336 109-1068) (domain or fragment)” as the substance, how does the binding read?
**A.** The binding was “no binding”.

**Q.** How did the binding turn out when “p110δ P94A/P97A (from UniProt O00329 1-1044)” was run?
**A.** The binding was “binds”.

**Q.** For “p110β ABD [41–118] (from UniProt P42338 41-118) (domain or fragment)”, which binding is on record?
**A.** Its binding is “binds”.

**Q.** Which binding does the source give for “FLAG-tagged wild type p110β (from UniProt P42338 1-1070)” here?
**A.** The binding was “binds”.

**Q.** For “p110β ΔABD [119–1070] (from UniProt P42338 119-1070) (domain or fragment)”, which binding is on record?
**A.** Its binding is “no binding”.

**Q.** How did the binding turn out when “p110β ABD [41–118] P/A (from UniProt P42338 41-118) (domain or fragment)” was run?
**A.** The binding was “no binding”.
